# Entries after “also recorded” stand apart in the source; their conditions may differ. For at least one compound, name, drawing or mass did not settle the structure.
# Experiments:
# [1] = test system: HA-GLUT4-expressing 3T3-L1 adipocytes; assay: Fluorescence-based HA-GLUT4 translocation assay (GLUT4 at plasma membrane as percentage of total) in adipocytes; format: cell-based; settings: wortmannin in the presence of insulin (FIG. 2D)
# Method: Retrovirally-transduced fibroblasts expressing HA-tagged GLUT 4 or a mutant therof were differentiated into adipocytes essentially as described above. These adipocytes were then subcultured for 30 hours. Insulin was then added at different time points, after which the cells were fixed in 3% formaldehyde. After washing and quenching with 50 mM glycine, cells were incubated for 20 min with 5% normal swine serum (NSS) in the absence or presence of 0.1% saponin to analyse the level of GLUT4 at the plasma membrane (PM) or the total cellular GLUT4 content, respectively. […] After washing, fluorescence ([…]) was measured using the bottom-reading mode in a fluorescence microtiter plate reader (FLUOstar Galaxy, BMG Labtechnologies, Offenburg, Germany). The percentage of GLUT4 at the PM was calculated for each condition. ALEXA594-WGA fluorescence was used to correct for variation in cell density in each well.
# To determine the extent of insulin-induced GLUT4 translocation using the assay described supra, HA-GLUT4-expressing 3T3-L1 adipocytes grown in 96 well plates were incubated for 2 h in the absence of serum, whereafter 200 nM insulin was added at various time points and cell surface levels of HA-GLUT4 were analysed by indirect immunofluorescence labeling (FIG. 2B). […] No specific anti-HA labeling was detected in non-infected cells (FIG. 2A).
# [2] = test system: HA-GLUT4 expressing 3T3-L1 adipocytes; assay: Model of insulin resistance (chronic insulin stimulation, then acute insulin); format: cell-based; settings: 100 nM wortmanin
# Method: 3T3-L1 adipocytes retrovirally infected with GLUT4 (described in Example 1) were incubated 24 hours or 48 hours either with 600 nM insulin or with medium alone. After this chronic insulin stimulation (as indicated in FIG. 10) at 37° C. in a CO2 incubator, cells were washed and 200 nM insulin was added for additional 10 or 30 minutes. Cell surface levels of HA-GLUT4 were measured using the fluorescence based assay described supra and expressed as a percentage of total HA-GLUT4 detected in the cell. The experiment was also performed with the HA-GLUT4 TAIL mutant
# HA-GLUT4 expressing 3T3-L1 adipocytes were grown in 96 well plates, incubated for 2 hours or overnight in medium supplemented with 10% fetal calf serum or no serum. 200 nM insulin in case of acute stimulation and 600 nM insulin in case of chronic stimulation have been used. After overnight stimulation cells were washed and 200 nM fresh insulin was added for 10 or 30 mln.
# [3] = test system: 3T3-L1 adipocytes expressing HA-GLUT4; settings: Malide and Cushman J. Cell Sci. 110: 2795-2806; cited from earlier work
compound,measurement,setting,value
COC[C@H]1OC(=O)c2coc3c2[C@@]1(C)C1=C(C3=O)[C@@H]2CCC(=O)[C@@]2(C)C[C@H]1OC(C)=O [wortmannin],effect on insulin-induced translocation of GLUT4 to the plasma membrane,[1],inhibited
same,effect on insulin-induced translocation of GLUT4 to the plasma membrane,[1]; listed as wortmanin,almost totally abrogated; also recorded: capable of suppressing GLUT4 translocation
same,effect on levels of HA-GLUT4 translocation,"[2]; acute exposure to insulin, cells incubated in the absence of insulin (so in the source)",able to reduce levels of HA-GLUT4 translocation
same,effect on levels of GLUT4 translocated to the plasma membrane,[2]; chronic exposure to insulin,did not appear to significantly alter
same,effect on translocation of HA-GLUT4,"[2]; presence of serum, acute or chronic exposure to insulin, FIG. 13",little effect
same,direct effect on GLUT4 internalization in adipocytes,[3],no direct effect
